Screening data

The results are deposited in PubChem (AID1053133; Broad Institute, 2014).

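Vaccinia-infected cells with a two-color viral stage reporter; Venus fluorescence read on a plate reader; the cell line is not named here; timing not stated here.
The test concentration is not given here.
Percent change in Venus reporter signal; lower (more negative) values mean stronger inhibition of that viral stage.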

Values are in %.
How 0% and 100% were set is not given here.
Common to all entries: measured here: Venus reporter, other viral stage.
This is a side read-out of the assay, for part of the compounds, not drawn at random.

* CCC(=O)Nc1ccc2c(c1)C(=O)N(C)C[C@H](OC)[C@@H](C)CN(CC1CCCCC1)[C@H](C)CO2 | activity change (Venus) -26.68%
* C[C@@H]1CN([C@@H](C)CO)C(=O)c2cc(/C=C/c3ccccc3)cnc2O[C@H]1CN(C)C(=O)c1cccc(F)c1 | activity change (Venus) -40.84%
* COc1ccc(C#Cc2ccc([C@@H]3[C@H](CO)N4C(=O)CN(C(=O)c5ccccc5)C[C@@H]34)cc2)cc1 | activity change (Venus) -31.76%
* COc1ccc(NC(=O)Nc2ccc3c(c2)C(=O)N([C@@H](C)CO)C[C@@H](C)[C@@H](CN(C)Cc2ccc(Cl)c(Cl)c2)O3)cc1 | activity change (Venus) -55.68%
* O=C(CC1CC1)N1CC(=O)N2[C@H](C1)[C@@H](c1ccc(C#Cc3ccc(F)cc3)cc1)[C@@H]2CO | activity change (Venus) -41.92%
* O=C(Nc1ccccc1F)N1CCCCN2[C@H](CO)[C@@H](c3ccc(/C=C/c4ccccc4)cc3)[C@@H]2C1 | activity change (Venus) -47.91%
* C[C@H](CO)N1C[C@H](C)[C@H](CN(C)Cc2ccc(C(F)(F)F)cc2)OCCCC[C@H](C)Oc2ccc(N(C)C)cc2C1=O | activity change (Venus) -22.98%
* CC(C)(C)[S@](=O)N1Cc2cc(C(=O)NCc3ccccn3)nc(-c3cccc(-c4ccccc4F)c3)c2[C@@H]1CCO | activity change (Venus) -8.814%
* COc1ccc(NC(=O)Nc2cccc3c2O[C@H](CN(C)S(C)(=O)=O)[C@@H](C)CN([C@H](C)CO)C3=O)cc1 | activity change (Venus) -41.64%
* O=C(Cc1ccccn1)N1CC(=O)N2[C@H](CO)[C@@H](c3ccc(C#CCC4CCCC4)cc3)[C@@H]2C1 | activity change (Venus) -30.43%
* CC(C)CC#Cc1ccc2c(c1)O[C@@H](CN(C)C(=O)c1ccccc1F)[C@@H](C)CN([C@H](C)CO)S2(=O)=O | activity change (Venus) -36.18%
* Cc1ccc(S(=O)(=O)N(C)C[C@@H]2Oc3ccc(NC(=O)Nc4ccccc4)cc3CC(=O)N([C@@H](C)CO)C[C@@H]2C)cc1 | activity change (Venus) -57.17%
* O=C1CN(S(=O)(=O)Cc2ccccc2)C[C@@H]2[C@@H](c3ccc(C#Cc4ccc(F)cc4)cc3)[C@H](CO)N12 | activity change (Venus) -40.65%
* C[C@@H]1CCCCO[C@H](CN(C)C(=O)C2CCCCC2)[C@H](C)CN([C@@H](C)CO)C(=O)c2cc(NC(=O)c3ccccc3)ccc2O1 | activity change (Venus) -36.19%
* C[C@H]1CN([C@@H](C)CO)C(=O)c2c(c3ccccc3n2C)-c2ccccc2CO[C@H]1CN(C)C(=O)c1cc(Cl)cc(Cl)c1 | activity change (Venus) -71.19%
* O=C(Nc1cc(F)ccc1F)N1CC(=O)N2[C@H](CO)[C@@H](c3ccc(-c4ccc(F)cc4)cc3)[C@H]2C1 | activity change (Venus) -33.7%
* C[C@H]1CN([C@@H](C)CO)C(=O)Cc2cc(NC(=O)Nc3ccc(C(F)(F)F)cc3)ccc2O[C@@H]1CN(C)CC1CCCCC1 | activity change (Venus) -34.71%
* C[C@@H]1CN([C@@H](C)CO)C(=O)c2c(c3ccccc3n2C)-c2ccccc2CO[C@@H]1CN(C)C(=O)Nc1ccccc1C(F)(F)F | activity change (Venus) -45.21%

2 of the entries, repeated:

COc1ccc(NC(=O)Nc2ccc3c(c2)C(=O)N([C@@H](C)CO)C[C@@H](C)[C@@H](CN(C)Cc2ccc(Cl)c(Cl)c2)O3)cc1 read activity change (Venus) -55.68%.
C[C@H]1CN([C@@H](C)CO)C(=O)Cc2cc(NC(=O)Nc3ccc(C(F)(F)F)cc3)ccc2O[C@@H]1CN(C)CC1CCCCC1 read activity change (Venus) -34.71%.